Measured values: patent US20260217671A1, “COMPOUND FOR PREVENTING AND/OR TREATING NEURODEGENERATIVE DISEASE” (TYK MEDICINES, INC., priority 2023, published 2026)
At least one read-out could not be matched to a standard name with certainty.

Assay: Brain-penetrating pharmacokinetic study (plasma, brain tissue)
Format: in vivo, Sprague-Dawley (SD) rat
Conditions: SD rat, gavage (p.o.) 10 mg/kg single dose
Source text: Test Example 2 Brain-Penetrating Pharmacokinetic Study
Solvent for Administration: 5% DMSO+10% Solutol HS15+85% physiological saline
Formulation preparation process: weighed an appropriate amount of powder, added an appropriate volume of DMSO, vortexed, then added an appropriate volume of Solutol solution, vortexed, and finally added an appropriate amount of physiological saline, vortexed and sonicated to obtain a homogeneous, clear formulation solution.
Two samples of the formulation were retained before administration, and the remaining formulation after administration was stored at 2-8° C. for shipment.
Laboratory animals were housed in the animal facility of Suzhou Xihua New Drug Development Co., Ltd. (license number: SYXK(Su)2021-0019). The animal facility was equipped with an air conditioning system and had good ventilation. The indoor temperature was maintained 20° C.-26° C., and the humidity was maintained 40%-70%4. […]
Before administration, checked the condition of the drug formulation and ensured its uniformity by swirling, stirring, or shaking. Calculated the theoretical dosage volume for each SD rat in each group using the following formula. […]
A quantitative detection method for the target compounds was established using Shimadzu liquid chromatography and Triple Quad TM 6500+AB mass spectrometry. The concentration of the parent drug in the sample was analyzed. […]

C[C@@H](OC1=CC(=O)N[C@H]1Cc1ccccc1)c1ccc(F)cc1 [Compound T-47]
blood-brain barrier permeability (in words): good blood-brain barrier permeability
